System: U87-MG cells
Test: Cellular thermal shift assay (CETSA) with TMT LC-MS/MS
Assay type: cell-based, human

For Cn1cnnc1S/C=C/C(=O)c1ccc(F)cc1 [Y102], the “proteins with a statistically significant difference of melting points versus DMSO (ΔTm)” value (2 μM, 2 h, p-value<0.100) was 19 and the “potential targets identified on comparison of the two proteomics approaches” value (CETSA and click chemistry-enriched pulldown) was “the BORC complex, determined by the identification of two subunits BORCS6 and BORCS7, and the cell cycle regulator CDKN1A/p21”.

Reference: patent US20220326218A1, “COMPOSITION AND METHOD FOR INHIBITING BORC COMPLEX TO TREAT CANCERS WITH NF1 DEFICIENCY AND DYSREGULATED RAS SIGNALING” (THE TRUSTEES OF DARTMOUTH COLLEGE, priority 2019, published 2022)
